Measurements reported in PubChem BioAssay AID1224830 (NIAID, 2016)

Test: 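Host factors that control LPS-induced TNF expression in human macrophages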 (primary screen)
System: human THP-1 monocytic leukaemia cells, TNF dual-luciferase reporter clone, PMA-differentiated to macrophage-like cells
Reagent: siRNA pool against human genes, 50 nM
Duration: LPS for 4 h, given about 3 days after siRNA transfection
Conditions: bacterial LPS (TLR4 ligand), 10 ng/ml
Read-out: 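TNF firefly reporter luminescence divided by renilla, normalised to the plate median, then turned into a robust z-score for each replicate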
Reading the numbers: TNF reporter robust z-score: higher = stronger TNF reporter response to LPS
Hit rule: 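Each well counts as active if its z-score is over 2.8 or under -1.5; controls are left without a call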
The whole screen tested about 18,000 reagents; shown is a part drawn at random. About 2,900 of all reagents (16%) count as active. 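Calls are made per well; low scores hint the gene aids the LPS response, high scores that it dampens it.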 A number with no mark means an inactive call. Repeated entries: four replicate wells of each siRNA pool.

target,TNF reporter robust z-score
ZFP2,2.76
ZFP2,3.96 (active)
ZFP2,3.16 (active)
ZFP2,2.06
MRPL48,0.08
MRPL48,-0.16
MRPL48,0.67
MRPL48,1.2
TSBP1,0.82
TSBP1,1.25
TSBP1,1.23
TSBP1,-0.91
CDC42SE1,-0.58
CDC42SE1,-0.24
CDC42SE1,-1.32
CDC42SE1,-0.6
NRDC,-0.77
NRDC,-0.46
NRDC,-0.68
NRDC,-1.41
KDM6A,-0.68
KDM6A,0.1
KDM6A,-0.64
KDM6A,-0.42
VRK1,1
VRK1,0.71
VRK1,1.37
VRK1,-1.23
H2AJ,-1.15
H2AJ,-0.21
H2AJ,0.01
H2AJ,-0.05
BRI3,-1.42
BRI3,-1.27
BRI3,-1
FRS2,-0.11
FRS2,-0.17
FRS2,-1.39
FRS2,-1.41
COL12A1,-0.16
COL12A1,1.13
COL12A1,1.03
COL12A1,2.2
PCTP,1.8
PCTP,0.31
PCTP,-1.15
PCTP,-0.65
BST1,-1.77 (active)
BST1,-1.43
BST1,-1.81 (active)
BST1,-0.88
DNAAF11,-0.26
DNAAF11,0.28
DNAAF11,0.09
DNAAF11,2.04
RBM12,-0.57
RBM12,0.62
RBM12,-0.33
RBM12,0.32
KRTAP5-4,-1.52 (active)
KRTAP5-4,-1.24
KRTAP5-4,-0.76
KRTAP5-4,-0.89
PDE5A,-0.27
PDE5A,-0.99
PDE5A,-1
PDE5A,-1.14
DHFR2,1.26
DHFR2,1.61
DHFR2,0.49
DHFR2,0.89
ZNF43,1.15
ZNF43,0.54
ZNF43,0.15
ZNF43,0.86
MRPS35,-1.9 (active)
MRPS35,-2.12 (active)
MRPS35,-1.81 (active)
MRPS35,-1.89 (active)
RBM22,-0.04
RBM22,-0.22
RBM22,0.66
RBM22,0.74
AP1G1,-0.03
AP1G1,1.25
AP1G1,-0.81
AP1G1,-0.12
FFAR4,-1.53 (active)
FFAR4,-0.81
FFAR4,-1.49
FFAR4,-1.61 (active)
MYO10,6.23 (active)
MYO10,0.21
MYO10,-1.08
MYO10,-1.03
ABHD14A,1.42
ABHD14A,-0.69
ABHD14A,0.01
ABHD14A,0.59
KIF2B,-0.56
KIF2B,0.04
KIF2B,0.77
KIF2B,1.02
LRFN5,0.23
LRFN5,-0.27
LRFN5,-0.33
LRFN5,-0.03
IRX5,0.02
IRX5,-0.33
IRX5,-0.81
IRX5,-0.76
